The results in this text go back to PMC7706265.

Chains of the proteins cited; added tags and fusions are not shown. Lines headed by an entry give the natural chain unless they say otherwise; changes in a name come on top.
UniProt A2A791: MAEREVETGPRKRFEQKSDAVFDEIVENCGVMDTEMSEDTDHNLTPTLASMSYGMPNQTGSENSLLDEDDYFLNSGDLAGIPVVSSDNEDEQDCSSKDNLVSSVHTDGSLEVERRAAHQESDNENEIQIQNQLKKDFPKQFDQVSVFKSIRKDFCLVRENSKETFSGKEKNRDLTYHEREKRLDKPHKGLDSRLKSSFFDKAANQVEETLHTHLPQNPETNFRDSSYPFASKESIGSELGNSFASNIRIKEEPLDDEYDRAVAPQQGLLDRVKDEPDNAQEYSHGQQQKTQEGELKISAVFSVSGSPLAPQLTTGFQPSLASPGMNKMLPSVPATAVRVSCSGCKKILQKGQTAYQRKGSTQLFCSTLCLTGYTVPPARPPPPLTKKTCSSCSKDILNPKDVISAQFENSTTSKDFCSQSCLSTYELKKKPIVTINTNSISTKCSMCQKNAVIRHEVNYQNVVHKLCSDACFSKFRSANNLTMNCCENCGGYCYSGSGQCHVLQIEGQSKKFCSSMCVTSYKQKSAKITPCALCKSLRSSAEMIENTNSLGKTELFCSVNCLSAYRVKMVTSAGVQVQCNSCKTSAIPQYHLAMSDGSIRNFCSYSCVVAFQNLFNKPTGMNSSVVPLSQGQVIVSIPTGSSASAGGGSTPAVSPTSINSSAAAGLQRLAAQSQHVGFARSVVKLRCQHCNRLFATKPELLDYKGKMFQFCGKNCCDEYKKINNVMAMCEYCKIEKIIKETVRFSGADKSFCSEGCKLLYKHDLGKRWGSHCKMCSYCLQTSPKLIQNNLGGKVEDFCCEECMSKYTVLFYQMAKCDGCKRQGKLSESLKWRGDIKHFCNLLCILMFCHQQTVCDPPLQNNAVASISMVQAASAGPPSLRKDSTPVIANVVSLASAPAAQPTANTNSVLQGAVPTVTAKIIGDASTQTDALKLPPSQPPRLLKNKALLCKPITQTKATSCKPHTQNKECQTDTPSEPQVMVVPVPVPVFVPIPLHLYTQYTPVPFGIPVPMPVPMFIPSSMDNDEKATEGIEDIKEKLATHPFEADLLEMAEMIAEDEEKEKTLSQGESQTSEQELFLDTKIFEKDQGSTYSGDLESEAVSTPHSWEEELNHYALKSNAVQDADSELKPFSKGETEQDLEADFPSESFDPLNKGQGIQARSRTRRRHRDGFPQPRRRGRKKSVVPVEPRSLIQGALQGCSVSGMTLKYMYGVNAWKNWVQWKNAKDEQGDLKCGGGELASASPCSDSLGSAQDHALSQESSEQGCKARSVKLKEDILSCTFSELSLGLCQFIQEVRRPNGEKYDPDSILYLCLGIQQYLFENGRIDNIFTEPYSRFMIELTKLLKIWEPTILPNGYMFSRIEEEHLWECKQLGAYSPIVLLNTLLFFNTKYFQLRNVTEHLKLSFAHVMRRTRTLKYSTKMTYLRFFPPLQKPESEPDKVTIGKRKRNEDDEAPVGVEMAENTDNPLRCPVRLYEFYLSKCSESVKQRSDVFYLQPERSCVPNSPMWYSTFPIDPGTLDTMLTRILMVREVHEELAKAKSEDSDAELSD
UniProt A2AWL7: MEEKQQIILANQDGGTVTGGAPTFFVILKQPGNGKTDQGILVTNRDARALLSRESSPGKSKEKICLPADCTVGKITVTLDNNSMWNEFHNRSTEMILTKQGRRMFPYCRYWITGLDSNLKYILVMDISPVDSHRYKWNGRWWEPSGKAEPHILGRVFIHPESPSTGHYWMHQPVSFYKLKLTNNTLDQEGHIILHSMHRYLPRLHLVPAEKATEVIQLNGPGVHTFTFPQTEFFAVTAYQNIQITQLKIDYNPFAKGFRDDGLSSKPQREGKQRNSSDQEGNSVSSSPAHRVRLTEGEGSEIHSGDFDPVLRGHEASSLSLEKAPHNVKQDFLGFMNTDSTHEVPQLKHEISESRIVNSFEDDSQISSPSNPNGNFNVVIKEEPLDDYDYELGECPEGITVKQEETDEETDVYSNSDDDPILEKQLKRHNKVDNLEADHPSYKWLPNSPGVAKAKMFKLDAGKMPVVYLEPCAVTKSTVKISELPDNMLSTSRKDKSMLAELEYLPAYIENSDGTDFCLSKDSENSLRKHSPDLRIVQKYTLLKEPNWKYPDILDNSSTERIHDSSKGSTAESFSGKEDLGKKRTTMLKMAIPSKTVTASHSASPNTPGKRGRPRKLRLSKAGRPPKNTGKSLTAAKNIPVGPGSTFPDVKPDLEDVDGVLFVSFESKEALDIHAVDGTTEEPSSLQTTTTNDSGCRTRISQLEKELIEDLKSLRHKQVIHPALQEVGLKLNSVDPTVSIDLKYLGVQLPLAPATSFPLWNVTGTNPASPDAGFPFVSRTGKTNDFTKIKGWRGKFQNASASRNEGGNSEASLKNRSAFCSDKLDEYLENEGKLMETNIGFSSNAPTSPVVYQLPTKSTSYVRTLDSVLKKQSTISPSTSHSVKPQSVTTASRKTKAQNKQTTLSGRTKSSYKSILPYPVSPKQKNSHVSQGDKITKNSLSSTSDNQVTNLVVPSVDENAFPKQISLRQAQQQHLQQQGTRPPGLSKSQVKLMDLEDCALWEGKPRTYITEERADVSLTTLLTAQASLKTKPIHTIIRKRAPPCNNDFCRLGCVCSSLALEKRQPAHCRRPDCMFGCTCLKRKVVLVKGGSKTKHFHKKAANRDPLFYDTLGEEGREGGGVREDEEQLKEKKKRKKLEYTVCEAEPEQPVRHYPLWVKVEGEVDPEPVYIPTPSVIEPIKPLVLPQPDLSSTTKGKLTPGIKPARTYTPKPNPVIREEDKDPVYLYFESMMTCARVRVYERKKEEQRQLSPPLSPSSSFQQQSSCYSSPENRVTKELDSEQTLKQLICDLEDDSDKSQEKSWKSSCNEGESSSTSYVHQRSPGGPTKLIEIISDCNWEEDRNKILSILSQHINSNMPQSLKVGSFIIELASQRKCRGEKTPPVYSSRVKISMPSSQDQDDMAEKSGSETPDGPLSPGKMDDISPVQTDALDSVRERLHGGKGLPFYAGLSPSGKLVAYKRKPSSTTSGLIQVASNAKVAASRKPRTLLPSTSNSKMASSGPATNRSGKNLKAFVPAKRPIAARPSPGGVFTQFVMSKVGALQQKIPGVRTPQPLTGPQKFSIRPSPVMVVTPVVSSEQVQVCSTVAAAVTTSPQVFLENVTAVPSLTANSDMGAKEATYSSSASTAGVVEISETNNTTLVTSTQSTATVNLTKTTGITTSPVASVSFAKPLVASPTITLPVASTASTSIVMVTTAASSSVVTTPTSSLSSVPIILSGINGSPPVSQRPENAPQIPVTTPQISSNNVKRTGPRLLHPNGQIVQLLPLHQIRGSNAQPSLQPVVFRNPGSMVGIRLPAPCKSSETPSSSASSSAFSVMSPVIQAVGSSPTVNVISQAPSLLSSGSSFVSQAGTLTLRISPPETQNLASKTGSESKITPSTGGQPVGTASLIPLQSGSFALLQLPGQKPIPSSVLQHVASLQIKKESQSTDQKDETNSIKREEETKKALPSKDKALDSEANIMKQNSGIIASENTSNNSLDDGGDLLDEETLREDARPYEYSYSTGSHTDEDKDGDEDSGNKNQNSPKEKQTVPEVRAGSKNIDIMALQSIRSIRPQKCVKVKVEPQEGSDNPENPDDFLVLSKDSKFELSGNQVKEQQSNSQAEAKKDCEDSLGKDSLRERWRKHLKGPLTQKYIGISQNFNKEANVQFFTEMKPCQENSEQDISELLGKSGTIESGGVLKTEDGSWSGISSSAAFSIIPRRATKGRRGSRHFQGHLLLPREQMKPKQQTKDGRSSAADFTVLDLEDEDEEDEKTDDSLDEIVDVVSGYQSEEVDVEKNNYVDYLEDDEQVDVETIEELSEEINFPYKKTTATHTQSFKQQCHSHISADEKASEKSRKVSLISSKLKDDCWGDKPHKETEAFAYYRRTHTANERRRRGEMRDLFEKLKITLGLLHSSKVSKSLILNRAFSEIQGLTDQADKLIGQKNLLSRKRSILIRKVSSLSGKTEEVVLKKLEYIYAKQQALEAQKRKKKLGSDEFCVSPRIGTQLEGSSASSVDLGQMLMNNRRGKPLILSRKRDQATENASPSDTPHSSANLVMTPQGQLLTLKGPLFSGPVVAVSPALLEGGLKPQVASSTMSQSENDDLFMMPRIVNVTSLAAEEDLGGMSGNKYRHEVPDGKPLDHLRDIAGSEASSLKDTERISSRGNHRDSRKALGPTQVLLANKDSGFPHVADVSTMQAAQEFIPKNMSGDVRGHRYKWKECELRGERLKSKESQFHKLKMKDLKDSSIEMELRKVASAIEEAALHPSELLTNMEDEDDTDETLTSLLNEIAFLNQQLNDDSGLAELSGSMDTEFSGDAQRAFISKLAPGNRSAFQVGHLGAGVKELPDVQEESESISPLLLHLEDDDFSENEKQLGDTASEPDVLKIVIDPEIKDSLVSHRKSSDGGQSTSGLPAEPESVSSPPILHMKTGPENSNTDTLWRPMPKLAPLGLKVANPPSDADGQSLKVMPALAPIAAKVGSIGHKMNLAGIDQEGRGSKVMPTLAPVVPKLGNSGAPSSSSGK
UniProt B2RRF6: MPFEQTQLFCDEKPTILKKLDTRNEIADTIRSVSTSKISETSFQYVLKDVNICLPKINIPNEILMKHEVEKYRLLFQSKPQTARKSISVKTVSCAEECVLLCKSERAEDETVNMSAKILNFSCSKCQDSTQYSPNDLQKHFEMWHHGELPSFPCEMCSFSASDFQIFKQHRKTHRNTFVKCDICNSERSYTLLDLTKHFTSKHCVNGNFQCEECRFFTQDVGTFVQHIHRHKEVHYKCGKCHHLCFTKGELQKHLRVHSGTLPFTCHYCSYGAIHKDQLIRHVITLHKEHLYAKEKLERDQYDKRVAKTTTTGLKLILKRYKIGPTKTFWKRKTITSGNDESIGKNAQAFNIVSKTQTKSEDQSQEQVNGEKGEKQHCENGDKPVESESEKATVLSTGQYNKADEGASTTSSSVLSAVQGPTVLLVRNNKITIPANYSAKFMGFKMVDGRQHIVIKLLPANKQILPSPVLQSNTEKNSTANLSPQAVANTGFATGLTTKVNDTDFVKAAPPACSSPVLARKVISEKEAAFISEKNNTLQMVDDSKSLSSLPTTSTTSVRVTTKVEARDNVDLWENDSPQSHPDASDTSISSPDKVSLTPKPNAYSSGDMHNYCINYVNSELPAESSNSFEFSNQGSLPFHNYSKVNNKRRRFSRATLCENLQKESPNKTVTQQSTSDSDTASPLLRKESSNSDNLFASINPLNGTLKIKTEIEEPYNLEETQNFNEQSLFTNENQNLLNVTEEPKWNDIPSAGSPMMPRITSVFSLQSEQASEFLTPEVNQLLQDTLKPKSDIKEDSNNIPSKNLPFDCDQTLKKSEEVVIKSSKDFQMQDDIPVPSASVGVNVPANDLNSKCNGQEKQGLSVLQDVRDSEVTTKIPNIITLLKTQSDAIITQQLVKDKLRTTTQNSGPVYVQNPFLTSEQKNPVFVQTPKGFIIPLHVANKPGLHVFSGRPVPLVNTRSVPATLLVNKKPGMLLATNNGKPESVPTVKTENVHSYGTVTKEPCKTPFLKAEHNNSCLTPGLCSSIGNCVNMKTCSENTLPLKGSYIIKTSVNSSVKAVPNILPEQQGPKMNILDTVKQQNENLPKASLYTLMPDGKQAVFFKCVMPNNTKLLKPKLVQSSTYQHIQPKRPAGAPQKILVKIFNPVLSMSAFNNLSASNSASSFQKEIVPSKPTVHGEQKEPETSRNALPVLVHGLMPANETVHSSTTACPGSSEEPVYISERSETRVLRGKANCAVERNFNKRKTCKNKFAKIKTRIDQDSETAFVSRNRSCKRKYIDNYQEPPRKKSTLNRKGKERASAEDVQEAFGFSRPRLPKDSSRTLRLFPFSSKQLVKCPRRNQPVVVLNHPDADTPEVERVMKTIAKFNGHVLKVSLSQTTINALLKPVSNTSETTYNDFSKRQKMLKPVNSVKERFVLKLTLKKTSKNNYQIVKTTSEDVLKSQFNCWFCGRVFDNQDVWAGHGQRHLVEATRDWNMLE

No constants are given. Whether binding was seen depends on the method and setting. Binding seen in cells or lysates may run through a third protein. Sequences can lack the tags named with a protein.

This test has as its target T1, 3xFLAG-tagged ATF7IP WT (transiently expressed in HEK293T cells) (mouse) (UniProt Q7TT18).
T1 sequence: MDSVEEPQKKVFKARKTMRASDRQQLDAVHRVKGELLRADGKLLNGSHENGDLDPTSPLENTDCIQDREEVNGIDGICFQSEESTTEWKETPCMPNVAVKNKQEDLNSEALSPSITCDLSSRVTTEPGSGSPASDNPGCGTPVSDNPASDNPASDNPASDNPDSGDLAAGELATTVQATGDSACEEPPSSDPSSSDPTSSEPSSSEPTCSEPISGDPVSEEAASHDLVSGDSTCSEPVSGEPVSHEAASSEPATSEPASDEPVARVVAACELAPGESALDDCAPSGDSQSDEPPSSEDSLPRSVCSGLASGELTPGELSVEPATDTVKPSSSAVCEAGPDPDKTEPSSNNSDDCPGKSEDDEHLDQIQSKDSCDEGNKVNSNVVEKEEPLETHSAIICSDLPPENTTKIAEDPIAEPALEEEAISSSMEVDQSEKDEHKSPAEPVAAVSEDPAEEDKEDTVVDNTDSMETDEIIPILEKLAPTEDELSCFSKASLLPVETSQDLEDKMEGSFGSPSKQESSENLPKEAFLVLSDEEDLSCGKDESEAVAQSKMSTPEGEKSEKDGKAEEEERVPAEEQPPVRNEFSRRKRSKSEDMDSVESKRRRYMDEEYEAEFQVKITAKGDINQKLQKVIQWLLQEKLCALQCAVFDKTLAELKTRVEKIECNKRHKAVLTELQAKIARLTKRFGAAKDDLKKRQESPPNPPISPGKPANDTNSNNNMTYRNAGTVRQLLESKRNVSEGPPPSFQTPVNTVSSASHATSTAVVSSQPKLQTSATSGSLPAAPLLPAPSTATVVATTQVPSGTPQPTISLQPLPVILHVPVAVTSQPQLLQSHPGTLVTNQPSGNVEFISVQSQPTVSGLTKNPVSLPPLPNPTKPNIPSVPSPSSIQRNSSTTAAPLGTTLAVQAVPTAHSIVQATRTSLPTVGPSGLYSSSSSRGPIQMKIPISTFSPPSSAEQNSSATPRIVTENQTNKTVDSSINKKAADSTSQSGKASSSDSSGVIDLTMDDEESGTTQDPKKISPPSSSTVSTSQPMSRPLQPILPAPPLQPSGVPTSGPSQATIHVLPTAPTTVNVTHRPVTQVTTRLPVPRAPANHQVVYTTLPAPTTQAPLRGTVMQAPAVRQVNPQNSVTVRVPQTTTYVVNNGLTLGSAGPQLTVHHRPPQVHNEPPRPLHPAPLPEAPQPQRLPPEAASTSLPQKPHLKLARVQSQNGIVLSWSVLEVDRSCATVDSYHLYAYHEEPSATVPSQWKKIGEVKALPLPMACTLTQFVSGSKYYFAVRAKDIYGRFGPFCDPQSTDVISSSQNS
Nature of the test: co-IP; HEK293T cells transiently co-transfected with 3xFLAG-ATF7IP (WT or dFNIII) and V5-tagged proteins; precipitated with anti-FLAG M2 affinity gel, 4 °C; western blot; which lysis buffer was used is not said.

Take “ZMYM4 with mutations at the FAM (from UniProt A2A791)”: the binding entry is listed as “no binding”.
On to “MGA C-terminus (residues 2362-3003) with mutations at the FAM (from UniProt A2AWL7) (domain or fragment)”, for which the binding entry was “no binding”.
The result for “ZFP518A with mutations at the FAM (from UniProt B2RRF6)” reads “no binding”.
